{"source": "patent US20040058974A1", "about": "“Treating fungal infections” (SCHERING CORPORATION, priority 2002, published 2004)", "experiment": "Open-label 3-way crossover clinical pharmacology study: plasma posaconazole pharmacokinetics in fasted healthy subjects (observed values and one-compartment model)", "assay_type": "in vivo, human", "settings": "200 mg QID vs 800 mg QD, model estimate (SE)", "source_text": "Men and women, 18 to 45 years of age were recruited for the clinical pharmacology study. Subjects were required to be of normal body weight (within 15% of ideal body weight) and generally in good health. Inclusion criteria included normal electrocardiogram (ECG) and laboratory test results, along with negative drug and pregnancy screens; nonlactating women of childbearing potential were required to use a barrier method of contraception during the study. Exclusion criteria included substance abuse or significant food or drug allergy, donation of blood or use of an investigational drug during the previous 90 days, use of any prescription or over-the-counter drugs other than acetaminophen in the previous 2 weeks, or use of alcohol during the previous 48 hours. […] Plasma posaconazole concentrations were quantified using a validated high-performance liquid chromatographic (HPLC) assay with a lower limit of quantitation (LOQ) of 5 ng/mL and a linear range of 5.0 to 5000 ng/mL. […] The intra-subject error was assumed to be additive, defined as, where Ci,j(t) and Gi,j(t) were the measured and predicted concentrations, respectively, for the j^th subject at time t under the i^th regimen. The predicted concentrations Gi,j(t) following treatments B and C were calculated using the principle of superpositioning, with a lag time equal to the dosing interval (B: 12 hours; C: 6 hours). […]", "note": "At least one read-out could not be matched to a standard name with certainty."}
{"smiles": "CC[C@@H]([C@H](C)O)n1ncn(-c2ccc(N3CCN(c4ccc(OC[C@@H]5CO[C@@](Cn6cncn6)(c6ccc(F)cc6F)C5)cc4)CC3)cc2)c1=O", "note": "[posaconazole]", "values": [{"measurement": "Bioavailability fraction F3, regimen C relative to regimen A", "result": "3.20±0.69"}]}
